This passage reports binding results from publication PMC10613150.

Results are given in words; binding and its absence hold for the method and conditions named. Binding seen in cells or lysates may run through a third protein. Binding can be weak; no strength is given. Where a sequence is shown, tags or fusion partners need not be part of it.

In this assay the target is hepatitis B precore protein with Flag tag (hepatitis B virus). Kind of assay: co-IP; HEK293T co-transfected with Myc-OTUD5 and a Flag-tagged HBV protein; lysed 48 h after transfection in 50 mM Tris-HCl pH 8.0, 150 mM NaCl, 1% NP-40; lysates incubated overnight with anti-FLAG M2 magnetic beads (Fig. 4B-D) or anti-Myc magnetic beads (Fig. 4E-G).

B1: OTUD5 with Myc tag (enzyme, UniProt Q96G74 1-571)
chain: MTILPKKKPPPPDADPANEPPPPGPMPPAPRRGGGVGVGGGGTGVGGGDRDRDSGVVGARPRASPPPQGPLPGPPGALHRWALAVPPGAVAGPRPQQASPPPCGGPGGPGGGPGDALGAAAAGVGAAGVVVGVGGAVGVGGCCSGPGHSKRRRQAPGVGAVGGGSPEREEVGAGYNSEDEYEAAAARIEAMDPATVEQQEHWFEKALRDKKGFIIKQMKEDGACLFRAVADQVYGDQDMHEVVRKHCMDYLMKNADYFSNYVTEDFTTYINRKRKNNCHGNHIEMQAMAEMYNRPVEVYQYSTGTSAVEPINTFHGIHQNEDEPIRVSYHRNIHYNSVVNPNKATIGVGLGLPSFKPGFAEQSLMKNAIKTSEESWIEQQMLEDKKRATDWEATNEAIEEQVARESYLQWLRDQEKQARQVRGPSQPRKASATCSSATAAASSGLEEWTSRSPRQRSSASSPEHPELHAELGMKPPSPGTVLALAKPPSPCAPGTSSQFSAGADRATSPLVSLYPALECRALIQQMSPSAFGLNDWDDDEILASVLAVSQQEYLDSMKKNKVHRDPPPDKS
In the case of B1, the binding result is “binds”.
